The source of these data is PubChem BioAssay AID662 (National Center for Advancing Translational Sciences (NCATS), 2007).

SMILES strings stand for the structures. The list shows a part of the results. Further columns of the screen follow, without active or inactive calls. Compounds called inactive in the main read-out are mostly missing here. Words in brackets tell the shape of the fitted curve; partial curves, single points and poor fits give uncertain potencies.

The test can be described thus: Cell signaling CRE-BLA (Fsk stim). The note with it: CHO CRE-bla reporter (cAMP response element driving beta-lactamase), forskolin EC10, beta-lactamase ratio; measured here: 460 nm blue channel. The gist of the method:
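CRE-bla CHO reporter cells treated with compound titration plus EC10 NKH 477 (water-soluble forskolin), incubated 3 h at 37 °C; CCF4 loading 2 h at room temperature, 460/530 nm emission ratio read, AC50 values derived for positive or negative modulators.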
The term AC50 denotes the concentration at which the activity in the assay is half-maximal. Consider `Cc1ccc(-n2nc(C)c3c2OC(N)=C(C#N)C3c2ccc(F)cc2)cc1` (configuration not stated), for which the AC50 was 0.1 µM [falling, partial curve].

In the case of `CCCC(C)n1[nH]c(=O)c2c(C)cc(C)nc21` (configuration not stated), the AC50 is 10 µM [rising, single point].

With `COc1cccc(Cn2c(=O)c(-c3ccc(Cl)cc3)nc3cnc(OC)nc32)c1`, the AC50 is 10 µM [rising, partial curve].

As for `Cc1c(C(=O)Nc2ccc(Cl)cn2)oc2ccccc12`, the AC50 is 0.794 µM [rising, full curve, poor fit].

On to `CCOCCCNC(=O)C1CCN(S(=O)(=O)N(CC(C)C)CC(C)C)CC1`, for which the AC50 was 5.01 µM [falling, partial curve, poor fit].

As for `Cc1nc2c(-c3ccccc3)c(C)nn2c(C)c1CCC(=O)O`, the AC50 is 10 µM [rising, partial curve].

As for `CCCCNC1C(CC)C(CCC)C(C#N)(C#N)C1(C#N)C#N` (configuration not stated), the AC50 is 3.16 µM [falling, full curve].

For `CC1(C)C=Cc2c(c3ccccc3[nH]c2=O)O1`, the AC50 was 10 µM [rising, single point].

With `O=C(O)C1C2C=CC(C2)C1C(=O)OC1CC2CCC1C2` (configuration not stated), the AC50 is 0.00316 µM [falling, full curve, poor fit].

On to `Cc1sc2nc(SCc3nc4ccccc4[nH]3)n(Cc3ccco3)c(=O)c2c1C`, for which the AC50 is 1.26 µM [rising, full curve].

Regarding `Cc1cc(C)c(OCC(=O)Nc2ccccc2N2CCOCC2)c(C)c1`, the AC50 is 12.6 µM [rising, partial curve].

Consider `CCCC1(C(=O)OC)C=C2C(=C(C(C)C)C(=O)C2C)CN1` (configuration not stated), for which the AC50 was 25.1 µM [rising, single point].

Turning to `CN(C)c1ccnc(-c2ccccc2C(F)(F)F)n1`, the AC50 is 5.01 µM [rising, single point].

Consider `Cc1cnc(NC(=O)CSc2nnc(-c3ccccc3)n2Cc2ccccc2)s1`, for which the AC50 was 12.6 µM [rising, partial curve].

As for `COc1ccc2cc(CN(CCCN3CCOCC3)Cc3nnnn3C3CCCCC3)c(=O)[nH]c2c1`, the AC50 was 0.794 µM [falling, partial curve].

In the case of `O=S(=O)(Nc1ccc2c(c1)nc1n2CCN(Cc2ccccc2)C1)c1ccc(F)cc1`, the AC50 was 5.01 µM [rising, single point].

As for `Cn1c(=O)cc(OCCCC(=O)NCc2ccccn2)c2ccccc21`, the AC50 is 10 µM [rising, single point].

`Brc1ccc(-c2nc3ccccc3s2)s1`: the AC50 is 3.98 µM [falling, partial curve].

As for `C=CCn1c(NC(=O)c2ccccc2)c(C#N)c2nc3ccccc3nc21`, the AC50 was 12.6 µM [rising, partial curve].

In the case of `CCOC(=O)N1CCC(NC(=O)COc2cc(=O)n(C)c3ccccc23)CC1`, the AC50 is 25.1 µM [rising, single point].

On to `COc1ccc(C)cc1S(=O)(=O)N(CC(=O)N1CCCC1)c1ccccc1`, for which the AC50 is 0.00398 µM [falling, full curve, poor fit].

Take `Nc1c(N2CCN(c3ccccc3)CC2)c2ccccc2oc1=O`: the AC50 is 0.1 µM [falling, partial curve].

In the case of `COc1ccc(NC(=O)N2CC[C@@]3(CCCN(C(=O)c4csnn4)C3)C2)cc1`, the AC50 is 3.98 µM [falling, single point].

`O=C(Nc1ccc(F)cc1F)N1CCCCC1c1cccnc1` (configuration not stated): the AC50 was 0.316 µM [rising, full curve].

For `COc1cccc(NS(=O)(=O)c2ccc3[nH]cc(C(=O)NCCC(C)C)c(=O)c3c2)c1`, the AC50 was 12.6 µM [falling, partial curve].

Regarding `CCC(C)n1c(SC(C)C#N)nc2ccccc2c1=O` (configuration not stated), the AC50 was 10 µM [rising, partial curve].

For the molecule `C1CCN=C(Nc2nc3c(s2)CCCC3)CC1`, the AC50 is 3.16 µM [falling, partial curve].

Regarding `CCc1ccc(NC(=O)N(CCCN2CCOCC2)C(C)c2cc3cccc(OC)c3o2)cc1` (configuration not stated), the AC50 is 3.16 µM [falling, single point].

On to `O=c1oc2cc(OCc3nn[nH]n3)ccc2c2c1CCCC2`, for which the AC50 was 25.1 µM [rising, single point].

`COc1cccc(-c2nn(C)c3sc(C(=O)NCc4ccco4)cc23)c1`: the half-maximal activity concentration (AC50) is 15.8 µM [rising, partial curve].

On to `Cc1cccc2cc(COC(=O)C3CCCO3)c(=O)[nH]c12` (configuration not stated), for which the AC50 was 2.51 µM [falling, partial curve].

Consider `CCCN(CCC)C(=O)CSc1nc2n[nH]c(C)c2c(=N)n1-c1ccc(OC)cc1`, for which the AC50 is 0.631 µM [rising, partial curve].

As for `COCCCn1c(SCC(=O)NC(C)C)nnc1-c1ccccc1`, the AC50 is 25.1 µM [rising, single point].

Regarding `CCOC(=O)c1c(NC(=O)CN2CCOCC2)sc2c1CCCC2`, the AC50 was 12.6 µM [rising, partial curve].

Take `COc1ccc(-c2noc(CSc3nc4ccccc4c(=O)n3-c3ccccc3)n2)cc1OC`: the AC50 was 12.6 µM [rising, partial curve].

`O=C(Nc1ccc(NC(=O)C2CC2)nc1)c1cccc(F)c1`: the AC50 is 3.98 µM [falling, single point].

As to `Cc1[nH]c2ccccc2c1SCCNC(=O)c1ccc(Br)o1`, the AC50 is 20 µM [falling, single point].

Consider `COc1ccccc1-n1cc(C(=O)NCC(=O)N2CCN(c3ccccc3)CC2)c2ccccc2c1=O`, for which the AC50 was 20 µM [falling, partial curve, poor fit].

`CC(C)C[C@@H](CC(=O)N[C@H](CC(=O)N[C@@H]1CCCC[C@H]1C(=O)N[C@H](CC(=O)N[C@@H](CCC(=O)O)CC(=O)O)CC(C)C)C(C)C)NC(=O)[C@@H]1CNCC[C@H]1N`: the AC50 was 25.1 µM [falling, partial curve, poor fit].

As to `Cc1c(NC(=O)C(C)OC(=O)CC2Sc3ccccc3NC2=O)c(=O)n(-c2ccccc2)n1C` (configuration not stated), the AC50 was 5.01 µM [falling, single point].

Turning to `CCN(CC)c1ccc(-n2cc3c(=O)n(C)c(=O)n(C)c3c2)cc1`, the AC50 is 10 µM [rising, partial curve].

For `O=c1c(-c2ccc(F)cc2)nc2cncnc2n1Cc1ccccc1`, the AC50 was 25.1 µM [rising, single point].
